In paper PMC6614843:
No constants are given. Whether binding was seen depends on the method and setting. In cells and extracts the contact can be indirect. Some entries that bind do so weakly or less than the wild type.

Sequences of proteins named here, by UniProt entry; tags and fusion partners are left off.
UniProt P09874: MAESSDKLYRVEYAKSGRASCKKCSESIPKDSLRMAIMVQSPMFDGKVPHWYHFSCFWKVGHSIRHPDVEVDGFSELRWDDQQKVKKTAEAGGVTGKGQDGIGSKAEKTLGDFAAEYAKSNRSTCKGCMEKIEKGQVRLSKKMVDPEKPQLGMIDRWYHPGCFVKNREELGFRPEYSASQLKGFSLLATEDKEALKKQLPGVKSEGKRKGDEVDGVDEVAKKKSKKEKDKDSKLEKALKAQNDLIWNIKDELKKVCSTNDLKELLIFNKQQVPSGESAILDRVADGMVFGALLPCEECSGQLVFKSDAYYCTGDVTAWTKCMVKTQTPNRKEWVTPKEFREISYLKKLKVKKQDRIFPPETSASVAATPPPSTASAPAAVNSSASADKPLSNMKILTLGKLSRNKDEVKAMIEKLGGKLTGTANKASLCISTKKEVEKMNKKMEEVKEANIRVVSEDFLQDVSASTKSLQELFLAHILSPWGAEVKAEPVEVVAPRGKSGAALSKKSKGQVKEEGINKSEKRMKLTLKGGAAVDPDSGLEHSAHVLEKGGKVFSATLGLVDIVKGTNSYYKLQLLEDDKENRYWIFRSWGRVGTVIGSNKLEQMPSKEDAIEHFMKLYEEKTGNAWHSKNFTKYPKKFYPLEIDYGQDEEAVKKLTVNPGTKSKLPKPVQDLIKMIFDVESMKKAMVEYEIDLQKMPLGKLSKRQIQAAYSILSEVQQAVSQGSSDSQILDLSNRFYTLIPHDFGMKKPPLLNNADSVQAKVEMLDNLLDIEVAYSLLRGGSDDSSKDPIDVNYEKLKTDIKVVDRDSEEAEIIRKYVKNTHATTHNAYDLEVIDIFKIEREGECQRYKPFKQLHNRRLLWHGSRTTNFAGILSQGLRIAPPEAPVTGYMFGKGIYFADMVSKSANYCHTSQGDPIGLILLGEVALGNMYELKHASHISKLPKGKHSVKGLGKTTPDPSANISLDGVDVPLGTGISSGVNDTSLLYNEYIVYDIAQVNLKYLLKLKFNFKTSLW
UniProt P18887: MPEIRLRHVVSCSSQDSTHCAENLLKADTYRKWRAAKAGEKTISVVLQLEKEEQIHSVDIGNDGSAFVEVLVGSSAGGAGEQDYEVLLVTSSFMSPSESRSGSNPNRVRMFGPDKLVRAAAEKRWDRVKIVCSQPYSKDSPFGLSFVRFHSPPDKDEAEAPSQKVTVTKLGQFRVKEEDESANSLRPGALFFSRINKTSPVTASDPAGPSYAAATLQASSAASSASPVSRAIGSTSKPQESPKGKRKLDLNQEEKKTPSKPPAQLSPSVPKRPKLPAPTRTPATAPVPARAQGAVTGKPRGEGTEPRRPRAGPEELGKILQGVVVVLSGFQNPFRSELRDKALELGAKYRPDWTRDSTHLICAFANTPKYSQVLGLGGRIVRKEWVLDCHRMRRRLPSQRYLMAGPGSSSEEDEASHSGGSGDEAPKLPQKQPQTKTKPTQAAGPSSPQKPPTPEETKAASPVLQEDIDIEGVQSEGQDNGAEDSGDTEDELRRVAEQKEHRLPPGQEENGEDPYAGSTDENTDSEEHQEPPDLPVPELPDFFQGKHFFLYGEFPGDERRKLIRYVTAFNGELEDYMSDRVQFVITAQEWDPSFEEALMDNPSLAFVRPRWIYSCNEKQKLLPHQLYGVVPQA

Target: GST-NQO1 (UniProt P15559)
Experiment: pull-down; GST-Polβ, GST-Polβ mutants, GST-NQO1, GST-NQO1(Y128F) or GST-EGFP on glutathione-agarose incubated 4 h with cell lysate (methods: HCT116; legends: LN428, T98G); cells untreated or treated with dicumarol (400 μM, 5 h) or H2O2 (150 μM, 0-3 h; 0-250 μM, 3 h); immunoblot; only the target purified

| binding | Substance |
| --- | --- |
| binds | PARP1 (endogenous) (from UniProt P09874 1-1014) |
| binds | XRCC1 (endogenous) (from UniProt P18887 1-633) |
